PMC10578191
No constants are given. Whether binding was seen depends on the method and setting. In cells and extracts the contact can be indirect. Some binding calls cover weakened binding; strength is not graded here.

Protein sequences, listed by entry. Tags and fused reporters are not part of them.
UniProt P52945: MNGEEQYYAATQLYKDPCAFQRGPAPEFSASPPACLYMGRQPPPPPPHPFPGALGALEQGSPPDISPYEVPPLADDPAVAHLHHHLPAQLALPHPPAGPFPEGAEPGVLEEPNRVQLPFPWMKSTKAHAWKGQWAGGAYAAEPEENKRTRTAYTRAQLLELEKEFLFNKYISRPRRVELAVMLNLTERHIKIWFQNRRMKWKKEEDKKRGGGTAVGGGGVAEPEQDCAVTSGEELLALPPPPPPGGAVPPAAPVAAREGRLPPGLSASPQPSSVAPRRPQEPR
UniProt P52946: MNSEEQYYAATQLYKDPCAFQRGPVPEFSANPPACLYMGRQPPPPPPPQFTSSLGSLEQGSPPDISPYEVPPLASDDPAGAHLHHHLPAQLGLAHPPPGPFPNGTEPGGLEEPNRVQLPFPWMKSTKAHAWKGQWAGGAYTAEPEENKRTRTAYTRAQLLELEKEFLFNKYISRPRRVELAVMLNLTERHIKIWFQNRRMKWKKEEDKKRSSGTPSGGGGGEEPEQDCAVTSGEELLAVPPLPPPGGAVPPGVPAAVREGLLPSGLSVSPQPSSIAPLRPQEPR
UniProt P52947: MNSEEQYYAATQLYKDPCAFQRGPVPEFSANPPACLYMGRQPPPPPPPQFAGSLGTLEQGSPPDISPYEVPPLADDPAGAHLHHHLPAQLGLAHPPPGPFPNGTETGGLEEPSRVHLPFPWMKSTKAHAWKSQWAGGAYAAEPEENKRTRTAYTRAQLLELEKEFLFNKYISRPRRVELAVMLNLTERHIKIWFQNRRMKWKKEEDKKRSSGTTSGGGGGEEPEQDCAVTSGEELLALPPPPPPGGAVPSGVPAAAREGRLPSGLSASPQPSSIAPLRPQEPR
UniProt Q7KZF4: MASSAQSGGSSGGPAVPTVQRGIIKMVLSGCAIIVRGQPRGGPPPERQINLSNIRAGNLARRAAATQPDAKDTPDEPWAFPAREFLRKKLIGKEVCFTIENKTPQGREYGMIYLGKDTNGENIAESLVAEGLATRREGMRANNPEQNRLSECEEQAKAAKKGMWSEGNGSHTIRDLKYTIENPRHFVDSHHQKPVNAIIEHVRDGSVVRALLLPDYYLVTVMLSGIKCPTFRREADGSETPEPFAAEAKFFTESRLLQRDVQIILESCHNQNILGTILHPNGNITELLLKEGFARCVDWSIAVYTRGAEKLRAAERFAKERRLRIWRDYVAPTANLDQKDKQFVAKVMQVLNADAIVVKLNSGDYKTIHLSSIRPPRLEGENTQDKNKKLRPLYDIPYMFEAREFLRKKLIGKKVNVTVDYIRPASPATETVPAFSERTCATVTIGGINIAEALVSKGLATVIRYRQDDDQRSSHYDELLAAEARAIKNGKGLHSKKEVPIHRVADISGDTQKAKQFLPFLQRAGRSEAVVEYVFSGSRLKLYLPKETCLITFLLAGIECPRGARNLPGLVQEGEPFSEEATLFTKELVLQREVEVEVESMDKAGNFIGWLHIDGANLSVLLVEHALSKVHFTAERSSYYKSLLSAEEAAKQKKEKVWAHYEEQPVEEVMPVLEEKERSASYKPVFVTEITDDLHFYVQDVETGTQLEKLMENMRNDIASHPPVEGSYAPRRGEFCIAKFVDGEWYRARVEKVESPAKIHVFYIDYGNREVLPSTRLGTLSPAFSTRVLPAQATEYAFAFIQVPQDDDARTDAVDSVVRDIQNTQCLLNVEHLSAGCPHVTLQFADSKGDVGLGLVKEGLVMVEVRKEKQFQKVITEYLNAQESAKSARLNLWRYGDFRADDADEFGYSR

Assays:
[1] = molecular target: Pancreatic and duodenal homeobox 1 (PDX1), human (human (endogenous in EndoC-βH1 cells and donor pancreas)) (UniProt P52945); test: proximity ligation; paraffin-embedded human pancreatic sections from nPOD donors (non-diabetic and T2D, n = 4 each), heat-activated antigen retrieval; goat α-Pdx1 and rabbit α-SND1; proinsulin counterstain; fewer signals in T2D donor β cell nuclei
[2] = molecular target: Pancreatic and duodenal homeobox 1 (PDX1), human (human (endogenous in EndoC-βH1 cells and donor pancreas)) (UniProt P52945); test: proximity ligation; EndoC-βH1 cells fixed with 4% paraformaldehyde, permeabilized with 0.1% Triton X-100; goat α-Pdx1 and rabbit α-SND1
[3] = molecular target: T1, Staphylococcal Nuclease and Tudor domain-containing protein (SND1), mouse (mouse (endogenous in βTC3 cells and C57BL/6J pancreas)) (UniProt Q78PY7); test: co-IP; 100 μg non-crosslinked nuclear extract of βTC3 or INS-1 832/13 cells; goat α-PDX1, α-SND1 or goat/rabbit IgG overnight at 4°C; Protein A/G PLUS-agarose; washed with PBS; immunoblot for PDX1 and SND1
T1 sequence: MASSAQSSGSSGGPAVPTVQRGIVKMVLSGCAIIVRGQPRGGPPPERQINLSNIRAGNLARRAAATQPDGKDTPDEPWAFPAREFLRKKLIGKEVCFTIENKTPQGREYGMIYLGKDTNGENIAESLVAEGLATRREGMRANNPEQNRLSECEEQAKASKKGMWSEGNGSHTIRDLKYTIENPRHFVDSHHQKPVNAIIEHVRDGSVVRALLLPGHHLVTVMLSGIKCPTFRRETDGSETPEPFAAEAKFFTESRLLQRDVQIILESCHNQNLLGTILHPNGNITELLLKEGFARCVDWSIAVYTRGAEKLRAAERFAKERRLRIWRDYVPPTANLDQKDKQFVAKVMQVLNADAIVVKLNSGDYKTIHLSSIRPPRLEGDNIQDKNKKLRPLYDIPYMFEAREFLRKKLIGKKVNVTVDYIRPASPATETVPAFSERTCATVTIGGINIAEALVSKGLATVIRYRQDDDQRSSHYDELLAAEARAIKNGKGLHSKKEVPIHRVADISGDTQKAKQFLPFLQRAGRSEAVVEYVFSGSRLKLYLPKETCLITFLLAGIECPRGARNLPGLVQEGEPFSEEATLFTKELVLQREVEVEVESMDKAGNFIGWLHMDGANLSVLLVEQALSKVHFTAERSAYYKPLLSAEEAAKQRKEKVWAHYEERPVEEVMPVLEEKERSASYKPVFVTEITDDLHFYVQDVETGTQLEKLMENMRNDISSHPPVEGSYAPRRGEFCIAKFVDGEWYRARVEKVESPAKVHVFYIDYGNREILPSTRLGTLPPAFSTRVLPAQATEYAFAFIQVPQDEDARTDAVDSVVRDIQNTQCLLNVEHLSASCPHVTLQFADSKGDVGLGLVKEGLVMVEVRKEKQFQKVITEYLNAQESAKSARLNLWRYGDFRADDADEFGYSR

[4] = molecular target: T2, Staphylococcal Nuclease and Tudor domain-containing protein (SND1), rat (rat (endogenous in INS-1 832/13)) (UniProt Q66X93); test: as above
T2 sequence: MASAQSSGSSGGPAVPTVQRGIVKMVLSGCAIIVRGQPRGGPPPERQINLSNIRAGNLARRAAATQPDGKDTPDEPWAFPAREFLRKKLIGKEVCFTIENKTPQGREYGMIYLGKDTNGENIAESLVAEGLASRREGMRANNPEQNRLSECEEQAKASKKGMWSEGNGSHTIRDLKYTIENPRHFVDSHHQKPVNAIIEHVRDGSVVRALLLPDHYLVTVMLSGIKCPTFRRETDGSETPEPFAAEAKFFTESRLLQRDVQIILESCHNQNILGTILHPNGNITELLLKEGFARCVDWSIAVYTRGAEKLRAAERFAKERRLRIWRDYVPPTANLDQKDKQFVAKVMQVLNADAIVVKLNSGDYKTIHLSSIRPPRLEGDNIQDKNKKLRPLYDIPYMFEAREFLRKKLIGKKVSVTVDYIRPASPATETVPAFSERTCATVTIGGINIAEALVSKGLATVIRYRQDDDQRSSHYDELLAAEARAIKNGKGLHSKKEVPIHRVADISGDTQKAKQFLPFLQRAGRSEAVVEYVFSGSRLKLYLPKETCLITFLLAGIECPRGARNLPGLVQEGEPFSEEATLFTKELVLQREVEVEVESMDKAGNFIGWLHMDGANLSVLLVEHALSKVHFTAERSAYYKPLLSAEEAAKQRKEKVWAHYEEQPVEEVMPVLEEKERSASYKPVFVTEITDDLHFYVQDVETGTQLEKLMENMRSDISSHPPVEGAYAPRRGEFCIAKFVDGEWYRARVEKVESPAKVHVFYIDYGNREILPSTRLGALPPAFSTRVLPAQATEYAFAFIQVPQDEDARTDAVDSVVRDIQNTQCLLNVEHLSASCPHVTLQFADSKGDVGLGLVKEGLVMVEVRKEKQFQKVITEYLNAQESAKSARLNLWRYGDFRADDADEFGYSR

[5] = molecular target: Pancreatic and duodenal homeobox 1 (PDX1), mouse (mouse (endogenous in βTC3 cells and C57BL/6J pancreas)) (UniProt P52946); test: as above
[6] = molecular target: Pancreatic and duodenal homeobox 1 (PDX1), mouse (mouse (endogenous in βTC3 cells and C57BL/6J pancreas)) (UniProt P52946); test: proximity ligation; cryosections of 12-week-old C57BL/6J mouse pancreas, 1% SDS permeabilization; goat α-Pdx1 and rabbit α-SND1; insulin counterstain
[7] = molecular target: Pancreatic and duodenal homeobox 1 (PDX1), rat (rat (endogenous in INS-1 832/13)) (UniProt P52947); test: co-IP; 100 μg non-crosslinked nuclear extract of βTC3 or INS-1 832/13 cells; goat α-PDX1, α-SND1 or goat/rabbit IgG overnight at 4°C; Protein A/G PLUS-agarose; washed with PBS; immunoblot for PDX1 and SND1

**Q.** “Staphylococcal Nuclease and Tudor domain-containing protein (SND1), human (from UniProt Q7KZF4 1-910)” was tested. Which binding [1] did it give?
**A.** The binding was “binds”.

**Q.** What about the binding [2] of the same molecule?
**A.** Its binding is “binds”.

**Q.** How did the binding [3] turn out when “Pancreatic and duodenal homeobox 1 (PDX1), mouse (from UniProt P52946 1-284)” was run?
**A.** Its binding is “binds”.

**Q.** How did the binding [4] turn out when “Pancreatic and duodenal homeobox 1 (PDX1), rat (from UniProt P52947 1-283)” was run?
**A.** Its binding is “binds”.

B1: Staphylococcal Nuclease and Tudor domain-containing protein (SND1), mouse (protein, UniProt Q78PY7 1-910)
chain: MASSAQSSGSSGGPAVPTVQRGIVKMVLSGCAIIVRGQPRGGPPPERQINLSNIRAGNLARRAAATQPDGKDTPDEPWAFPAREFLRKKLIGKEVCFTIENKTPQGREYGMIYLGKDTNGENIAESLVAEGLATRREGMRANNPEQNRLSECEEQAKASKKGMWSEGNGSHTIRDLKYTIENPRHFVDSHHQKPVNAIIEHVRDGSVVRALLLPGHHLVTVMLSGIKCPTFRRETDGSETPEPFAAEAKFFTESRLLQRDVQIILESCHNQNLLGTILHPNGNITELLLKEGFARCVDWSIAVYTRGAEKLRAAERFAKERRLRIWRDYVPPTANLDQKDKQFVAKVMQVLNADAIVVKLNSGDYKTIHLSSIRPPRLEGDNIQDKNKKLRPLYDIPYMFEAREFLRKKLIGKKVNVTVDYIRPASPATETVPAFSERTCATVTIGGINIAEALVSKGLATVIRYRQDDDQRSSHYDELLAAEARAIKNGKGLHSKKEVPIHRVADISGDTQKAKQFLPFLQRAGRSEAVVEYVFSGSRLKLYLPKETCLITFLLAGIECPRGARNLPGLVQEGEPFSEEATLFTKELVLQREVEVEVESMDKAGNFIGWLHMDGANLSVLLVEQALSKVHFTAERSAYYKPLLSAEEAAKQRKEKVWAHYEERPVEEVMPVLEEKERSASYKPVFVTEITDDLHFYVQDVETGTQLEKLMENMRNDISSHPPVEGSYAPRRGEFCIAKFVDGEWYRARVEKVESPAKVHVFYIDYGNREILPSTRLGTLPPAFSTRVLPAQATEYAFAFIQVPQDEDARTDAVDSVVRDIQNTQCLLNVEHLSASCPHVTLQFADSKGDVGLGLVKEGLVMVEVRKEKQFQKVITEYLNAQESAKSARLNLWRYGDFRADDADEFGYSR
**Q.** How did the binding [5] turn out when B1 was run?
**A.** Its binding is “binds”.

**Q.** What about the binding [6] of the same molecule?
**A.** The binding was “binds”.

B2: Staphylococcal Nuclease and Tudor domain-containing protein (SND1), rat (protein, UniProt Q66X93 1-909)
chain: MASAQSSGSSGGPAVPTVQRGIVKMVLSGCAIIVRGQPRGGPPPERQINLSNIRAGNLARRAAATQPDGKDTPDEPWAFPAREFLRKKLIGKEVCFTIENKTPQGREYGMIYLGKDTNGENIAESLVAEGLASRREGMRANNPEQNRLSECEEQAKASKKGMWSEGNGSHTIRDLKYTIENPRHFVDSHHQKPVNAIIEHVRDGSVVRALLLPDHYLVTVMLSGIKCPTFRRETDGSETPEPFAAEAKFFTESRLLQRDVQIILESCHNQNILGTILHPNGNITELLLKEGFARCVDWSIAVYTRGAEKLRAAERFAKERRLRIWRDYVPPTANLDQKDKQFVAKVMQVLNADAIVVKLNSGDYKTIHLSSIRPPRLEGDNIQDKNKKLRPLYDIPYMFEAREFLRKKLIGKKVSVTVDYIRPASPATETVPAFSERTCATVTIGGINIAEALVSKGLATVIRYRQDDDQRSSHYDELLAAEARAIKNGKGLHSKKEVPIHRVADISGDTQKAKQFLPFLQRAGRSEAVVEYVFSGSRLKLYLPKETCLITFLLAGIECPRGARNLPGLVQEGEPFSEEATLFTKELVLQREVEVEVESMDKAGNFIGWLHMDGANLSVLLVEHALSKVHFTAERSAYYKPLLSAEEAAKQRKEKVWAHYEEQPVEEVMPVLEEKERSASYKPVFVTEITDDLHFYVQDVETGTQLEKLMENMRSDISSHPPVEGAYAPRRGEFCIAKFVDGEWYRARVEKVESPAKVHVFYIDYGNREILPSTRLGALPPAFSTRVLPAQATEYAFAFIQVPQDEDARTDAVDSVVRDIQNTQCLLNVEHLSASCPHVTLQFADSKGDVGLGLVKEGLVMVEVRKEKQFQKVITEYLNAQESAKSARLNLWRYGDFRADDADEFGYSR
**Q.** B2 was tested. Which binding [7] did it give?
**A.** Its binding is “binds”.
